# Measured values: PubChem BioAssay AID540276 (National Center for Advancing Translational Sciences (NCATS), 2011)
# The whole screen tested about 300,000 compounds, of which about 5,400 (1.8%) were called active. Inconclusive results, whose numbers are uncertain, are shown with a selection of clear calls. Calls follow the shape of the full dose curve; tested in HEK293 cells. Potencies of inconclusive entries are doubtful fits and often do not repeat. Some structures have more than one record in an assay (separate samples or runs), and their calls can disagree.
# Assay: qHTS for inhibitors of binding or entry into cells for Marburg Virus
# Conditions: Marburg virus pseudotyped entry inhibition, cell reporter; series mostly up to 37.8 µM
# Potency is read from the fitted curve at half-maximal effect.
row,Compound,Potency
1,O=C(c1ccco1)N1CCN(CC(O)COc2ccc(Br)cc2)CC1 (stereo unspecified),inactive
2,CC1=CC(C)(C)N(C(=O)Nc2ccccc2)c2ccccc21,"inconclusive: 35.5 µM [activator, single point]"
3,COc1cccc(CN(C)C(=O)c2ccc(OCC(=O)Nc3cccc(C(F)(F)F)c3)c(OC)c2)c1,"inconclusive: 7.94 µM [inhibitor, partial curve]"
4,CCOC(=O)CCN(C(=S)Nc1ccccc1)C1CCCCC1,"inconclusive: 11.2 µM [activator, single point]"
5,COC(=O)c1ccc2c(=O)n(CCCCCC(=O)NCc3ccccc3)c(=O)[nH]c2c1,"inconclusive: 13 µM [activator, partial curve, poor fit]"
6,COc1ccccc1N1CCN(C(=O)c2ccc(COc3cccc4c3OC(C)(C)C4)cc2)CC1,"inconclusive: 14.1 µM [inhibitor, partial curve, poor fit]"
7,Cc1ccccc1Cn1nc(C)c(NC(=O)c2cc(-c3ccc(F)cc3)on2)c1C,"inconclusive: 35.5 µM [inhibitor, single point]"
8,CC(C)(C)NC(=O)NCCc1ccccc1,"inconclusive: 3.55 µM [activator, partial curve, poor fit]"
9,CSc1ccc(CCNC(=O)CCc2c(C)nc3c(-c4ccccc4)c(C)nn3c2C)cc1,"inconclusive: 3.98 µM [inhibitor, partial curve, poor fit]"
10,Cc1ccc(S(=O)(=O)N(C)C)cc1NC(=O)C(C)N(C)Cc1sccc1C (stereo unspecified),"inconclusive: 28.2 µM [inhibitor, partial curve, poor fit]"
11,Cc1cccc(CSCCNC(=O)c2ccc(N(C)S(=O)(=O)c3ccccc3)cc2)c1,"inconclusive: 35.5 µM [inhibitor, single point]"
12,O=C(C1CCCN(S(=O)(=O)c2cccc3nonc23)C1)N1CCN(c2cccc(Cl)c2)CC1 (stereo unspecified),active: 23.1 µM
13,O=C(NCCc1ccccc1)c1ccccc1NC(=O)C1CC=CCC1C(=O)O (stereo unspecified),"inconclusive: 5.62 µM [activator, single point]"
14,COc1cc(-n2c(=O)c3ccccc3n(CC(=O)c3ccc(F)cc3)c2=O)cc(OC)c1OC,"inconclusive: 18.3 µM [inhibitor, partial curve, poor fit]"
15,O=C(CSc1nnc(-c2ccccc2)o1)NC1CC1,"inconclusive: 17.8 µM [activator, single point]"
16,CCOc1cc(C(=O)Nc2cnccn2)cc(OCC)c1OCC,"inconclusive: 16.4 µM [inhibitor, single point]"

# A second format for part of the listing above:
row	Compound	Potency
3	COc1cccc(CN(C)C(=O)c2ccc(OCC(=O)Nc3cccc(C(F)(F)F)c3)c(OC)c2)c1	inconclusive: 7.94 µM [inhibitor, partial curve]
4	CCOC(=O)CCN(C(=S)Nc1ccccc1)C1CCCCC1	inconclusive: 11.2 µM [activator, single point]
